Measurements from the supplement of paper PMC12067093, “Discovery and optimisation of a covalent ligand for TRIM25 and its application to targeted protein ubiquitination” (Chemical Science, 2025).
The other results are listed elsewhere or left out.

The chains behind the UniProt entries cited, without tags or fusion partners. Where a name states a change or a piece, a line headed by the entry shows the natural chain unless it says otherwise.
UniProt Q5VWN6: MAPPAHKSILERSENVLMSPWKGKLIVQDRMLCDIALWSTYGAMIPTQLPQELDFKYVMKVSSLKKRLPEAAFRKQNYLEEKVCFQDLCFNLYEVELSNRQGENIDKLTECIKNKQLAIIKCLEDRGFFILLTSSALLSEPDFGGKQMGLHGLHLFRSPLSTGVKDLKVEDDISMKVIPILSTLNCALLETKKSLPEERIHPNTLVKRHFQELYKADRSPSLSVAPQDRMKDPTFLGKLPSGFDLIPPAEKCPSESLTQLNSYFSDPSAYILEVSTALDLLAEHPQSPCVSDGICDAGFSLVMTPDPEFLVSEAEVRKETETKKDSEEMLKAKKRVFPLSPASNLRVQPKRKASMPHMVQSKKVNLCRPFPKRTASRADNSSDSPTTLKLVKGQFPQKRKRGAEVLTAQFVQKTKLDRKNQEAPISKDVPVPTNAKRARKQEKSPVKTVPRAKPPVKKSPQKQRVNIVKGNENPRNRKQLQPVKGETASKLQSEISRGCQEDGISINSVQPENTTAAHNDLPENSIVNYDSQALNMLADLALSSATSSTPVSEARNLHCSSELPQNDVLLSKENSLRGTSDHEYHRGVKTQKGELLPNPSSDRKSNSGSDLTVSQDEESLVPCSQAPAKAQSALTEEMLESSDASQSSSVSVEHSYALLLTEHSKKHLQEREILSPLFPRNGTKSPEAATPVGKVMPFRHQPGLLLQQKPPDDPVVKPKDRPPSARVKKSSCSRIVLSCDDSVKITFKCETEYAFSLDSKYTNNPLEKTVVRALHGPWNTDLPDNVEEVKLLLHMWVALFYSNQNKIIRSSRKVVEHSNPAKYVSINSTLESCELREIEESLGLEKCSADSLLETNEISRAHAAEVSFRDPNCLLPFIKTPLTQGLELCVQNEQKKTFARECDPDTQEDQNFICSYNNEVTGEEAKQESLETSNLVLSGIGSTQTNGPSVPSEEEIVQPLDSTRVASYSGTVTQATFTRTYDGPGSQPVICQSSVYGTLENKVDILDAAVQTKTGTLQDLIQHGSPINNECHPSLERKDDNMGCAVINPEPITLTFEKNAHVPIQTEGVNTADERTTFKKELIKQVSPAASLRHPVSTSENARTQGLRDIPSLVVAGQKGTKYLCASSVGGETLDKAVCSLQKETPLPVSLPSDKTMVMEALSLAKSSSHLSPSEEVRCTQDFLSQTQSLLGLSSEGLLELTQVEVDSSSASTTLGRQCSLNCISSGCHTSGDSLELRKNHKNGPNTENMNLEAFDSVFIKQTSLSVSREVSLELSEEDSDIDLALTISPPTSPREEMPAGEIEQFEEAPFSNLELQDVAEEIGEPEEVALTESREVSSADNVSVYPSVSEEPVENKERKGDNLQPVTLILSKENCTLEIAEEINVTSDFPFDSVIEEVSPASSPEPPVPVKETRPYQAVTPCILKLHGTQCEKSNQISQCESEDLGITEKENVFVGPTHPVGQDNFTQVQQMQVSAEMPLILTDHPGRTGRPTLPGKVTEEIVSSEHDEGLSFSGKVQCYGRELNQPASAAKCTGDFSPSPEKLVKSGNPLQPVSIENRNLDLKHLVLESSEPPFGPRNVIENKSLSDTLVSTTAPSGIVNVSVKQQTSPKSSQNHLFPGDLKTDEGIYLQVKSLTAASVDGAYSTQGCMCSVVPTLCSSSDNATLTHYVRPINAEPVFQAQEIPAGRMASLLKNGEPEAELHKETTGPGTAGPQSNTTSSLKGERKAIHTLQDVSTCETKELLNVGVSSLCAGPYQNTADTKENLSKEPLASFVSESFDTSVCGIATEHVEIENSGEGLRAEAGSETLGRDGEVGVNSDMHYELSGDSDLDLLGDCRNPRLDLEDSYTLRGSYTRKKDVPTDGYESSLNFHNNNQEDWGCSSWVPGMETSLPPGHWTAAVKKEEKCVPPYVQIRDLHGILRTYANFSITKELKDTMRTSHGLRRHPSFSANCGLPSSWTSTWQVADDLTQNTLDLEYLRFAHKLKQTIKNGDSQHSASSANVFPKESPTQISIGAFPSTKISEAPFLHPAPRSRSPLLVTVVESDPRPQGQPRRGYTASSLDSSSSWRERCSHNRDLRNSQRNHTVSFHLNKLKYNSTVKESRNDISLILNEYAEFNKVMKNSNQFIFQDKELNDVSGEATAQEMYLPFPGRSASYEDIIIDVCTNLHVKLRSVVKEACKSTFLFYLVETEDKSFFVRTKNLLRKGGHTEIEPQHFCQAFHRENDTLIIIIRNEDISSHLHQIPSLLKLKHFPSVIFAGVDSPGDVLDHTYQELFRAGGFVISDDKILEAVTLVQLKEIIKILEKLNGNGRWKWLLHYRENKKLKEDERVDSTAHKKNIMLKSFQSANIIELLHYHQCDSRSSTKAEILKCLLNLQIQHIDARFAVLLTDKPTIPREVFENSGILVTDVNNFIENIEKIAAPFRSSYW
UniProt Q9NSD9: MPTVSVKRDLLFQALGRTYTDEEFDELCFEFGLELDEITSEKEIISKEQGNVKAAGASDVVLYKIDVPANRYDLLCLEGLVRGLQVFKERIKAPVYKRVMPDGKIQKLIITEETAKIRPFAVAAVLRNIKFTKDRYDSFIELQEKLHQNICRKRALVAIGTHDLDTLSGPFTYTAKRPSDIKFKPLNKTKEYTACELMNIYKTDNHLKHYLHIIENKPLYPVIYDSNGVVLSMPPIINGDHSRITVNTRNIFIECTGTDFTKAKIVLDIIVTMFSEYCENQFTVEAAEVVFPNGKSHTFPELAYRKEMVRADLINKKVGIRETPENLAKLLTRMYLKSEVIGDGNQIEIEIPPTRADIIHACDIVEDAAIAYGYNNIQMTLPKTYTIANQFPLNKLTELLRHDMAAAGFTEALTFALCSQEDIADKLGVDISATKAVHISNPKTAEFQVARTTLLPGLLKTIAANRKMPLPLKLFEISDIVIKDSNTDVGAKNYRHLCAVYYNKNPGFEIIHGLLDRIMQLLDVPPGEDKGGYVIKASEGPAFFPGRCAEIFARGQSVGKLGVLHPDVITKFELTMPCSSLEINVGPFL
UniProt Q9H469: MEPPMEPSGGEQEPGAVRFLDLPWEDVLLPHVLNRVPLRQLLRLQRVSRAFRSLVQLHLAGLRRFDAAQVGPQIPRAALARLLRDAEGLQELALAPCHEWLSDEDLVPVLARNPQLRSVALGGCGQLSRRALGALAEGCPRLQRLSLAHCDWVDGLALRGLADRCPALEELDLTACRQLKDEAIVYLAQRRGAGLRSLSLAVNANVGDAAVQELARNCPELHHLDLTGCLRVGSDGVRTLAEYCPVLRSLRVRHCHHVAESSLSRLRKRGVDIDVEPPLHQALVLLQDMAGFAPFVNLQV
UniProt Q92520: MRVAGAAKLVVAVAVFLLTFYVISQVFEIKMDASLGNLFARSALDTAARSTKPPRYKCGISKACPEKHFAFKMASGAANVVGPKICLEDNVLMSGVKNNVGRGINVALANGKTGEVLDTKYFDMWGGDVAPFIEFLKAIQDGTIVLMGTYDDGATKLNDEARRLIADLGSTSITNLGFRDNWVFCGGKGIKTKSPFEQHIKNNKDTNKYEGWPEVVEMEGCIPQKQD
UniProt P22570: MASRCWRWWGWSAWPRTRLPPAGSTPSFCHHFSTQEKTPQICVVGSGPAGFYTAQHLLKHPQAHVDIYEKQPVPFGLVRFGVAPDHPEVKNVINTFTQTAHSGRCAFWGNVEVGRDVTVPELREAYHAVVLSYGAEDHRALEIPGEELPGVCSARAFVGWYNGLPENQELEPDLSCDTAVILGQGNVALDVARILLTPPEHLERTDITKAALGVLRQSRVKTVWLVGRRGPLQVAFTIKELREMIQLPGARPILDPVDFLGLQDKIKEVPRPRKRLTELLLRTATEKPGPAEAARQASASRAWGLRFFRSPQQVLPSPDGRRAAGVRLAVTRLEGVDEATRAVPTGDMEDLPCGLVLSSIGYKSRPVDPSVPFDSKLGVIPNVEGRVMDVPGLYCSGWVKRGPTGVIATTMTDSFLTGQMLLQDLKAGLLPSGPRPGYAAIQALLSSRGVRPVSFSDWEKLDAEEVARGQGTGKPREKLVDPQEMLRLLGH
UniProt Q17RN3: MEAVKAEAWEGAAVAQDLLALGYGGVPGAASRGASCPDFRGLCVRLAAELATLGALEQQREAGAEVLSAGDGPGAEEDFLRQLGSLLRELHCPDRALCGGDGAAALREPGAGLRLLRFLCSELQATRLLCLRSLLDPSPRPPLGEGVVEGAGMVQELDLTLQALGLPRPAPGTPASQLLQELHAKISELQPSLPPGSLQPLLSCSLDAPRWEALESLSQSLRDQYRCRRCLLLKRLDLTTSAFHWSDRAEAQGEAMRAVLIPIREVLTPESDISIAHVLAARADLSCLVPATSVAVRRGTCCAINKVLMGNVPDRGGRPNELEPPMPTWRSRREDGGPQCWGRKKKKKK
UniProt Q9UK61: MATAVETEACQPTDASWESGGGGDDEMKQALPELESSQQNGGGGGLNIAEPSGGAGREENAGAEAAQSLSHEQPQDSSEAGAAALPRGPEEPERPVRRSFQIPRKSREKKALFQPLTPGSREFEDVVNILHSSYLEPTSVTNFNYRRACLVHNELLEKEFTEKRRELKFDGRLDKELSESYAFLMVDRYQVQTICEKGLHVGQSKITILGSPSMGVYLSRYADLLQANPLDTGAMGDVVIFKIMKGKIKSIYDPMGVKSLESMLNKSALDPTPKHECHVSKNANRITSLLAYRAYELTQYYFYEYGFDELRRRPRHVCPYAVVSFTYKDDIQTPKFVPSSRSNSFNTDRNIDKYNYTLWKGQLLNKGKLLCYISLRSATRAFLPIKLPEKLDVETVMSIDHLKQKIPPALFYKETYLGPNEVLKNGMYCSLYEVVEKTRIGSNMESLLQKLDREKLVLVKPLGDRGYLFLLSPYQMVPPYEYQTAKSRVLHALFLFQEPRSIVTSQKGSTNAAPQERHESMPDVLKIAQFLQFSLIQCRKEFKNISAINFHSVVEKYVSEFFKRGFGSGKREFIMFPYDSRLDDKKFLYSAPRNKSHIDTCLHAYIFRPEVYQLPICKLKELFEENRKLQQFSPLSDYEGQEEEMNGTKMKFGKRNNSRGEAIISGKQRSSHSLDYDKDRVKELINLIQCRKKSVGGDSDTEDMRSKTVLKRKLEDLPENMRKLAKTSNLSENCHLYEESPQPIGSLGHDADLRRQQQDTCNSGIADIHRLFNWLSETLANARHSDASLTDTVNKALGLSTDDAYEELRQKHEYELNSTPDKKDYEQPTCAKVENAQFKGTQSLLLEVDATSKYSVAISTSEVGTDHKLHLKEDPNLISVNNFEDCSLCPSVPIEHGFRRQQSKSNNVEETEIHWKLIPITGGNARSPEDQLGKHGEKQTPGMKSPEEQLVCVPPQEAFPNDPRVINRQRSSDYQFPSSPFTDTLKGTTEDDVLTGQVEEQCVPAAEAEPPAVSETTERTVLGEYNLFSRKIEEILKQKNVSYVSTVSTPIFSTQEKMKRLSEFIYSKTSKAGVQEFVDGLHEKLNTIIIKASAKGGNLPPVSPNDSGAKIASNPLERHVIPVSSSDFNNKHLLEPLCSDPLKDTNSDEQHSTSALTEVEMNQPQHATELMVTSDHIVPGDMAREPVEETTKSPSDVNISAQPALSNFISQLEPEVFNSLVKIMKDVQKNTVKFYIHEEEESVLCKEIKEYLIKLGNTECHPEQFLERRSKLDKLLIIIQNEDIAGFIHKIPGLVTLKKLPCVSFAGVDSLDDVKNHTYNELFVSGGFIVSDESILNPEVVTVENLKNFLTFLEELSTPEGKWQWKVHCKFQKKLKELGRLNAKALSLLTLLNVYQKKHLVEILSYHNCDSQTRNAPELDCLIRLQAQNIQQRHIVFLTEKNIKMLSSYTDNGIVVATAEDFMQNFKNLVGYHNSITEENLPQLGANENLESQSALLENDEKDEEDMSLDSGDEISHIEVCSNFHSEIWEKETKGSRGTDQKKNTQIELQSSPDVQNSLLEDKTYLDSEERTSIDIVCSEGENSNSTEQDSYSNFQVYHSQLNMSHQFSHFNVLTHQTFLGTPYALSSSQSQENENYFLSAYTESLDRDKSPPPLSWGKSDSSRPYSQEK
UniProt Q52LJ0: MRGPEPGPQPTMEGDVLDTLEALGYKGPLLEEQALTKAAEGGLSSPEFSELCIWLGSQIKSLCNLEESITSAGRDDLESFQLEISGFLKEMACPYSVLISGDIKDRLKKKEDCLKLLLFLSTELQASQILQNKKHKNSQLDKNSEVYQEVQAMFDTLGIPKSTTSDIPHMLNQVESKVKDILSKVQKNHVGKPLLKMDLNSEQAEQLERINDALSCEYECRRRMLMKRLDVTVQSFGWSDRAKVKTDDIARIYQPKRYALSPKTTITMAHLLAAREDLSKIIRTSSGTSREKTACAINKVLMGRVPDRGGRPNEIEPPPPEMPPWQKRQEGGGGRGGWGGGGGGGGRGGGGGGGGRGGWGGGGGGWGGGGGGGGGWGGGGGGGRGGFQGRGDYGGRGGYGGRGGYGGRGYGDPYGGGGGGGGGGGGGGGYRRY

Compound: Cc1cc(ccc1-c1ccccc1)C(=O)N1CCCN(CC1)C(=O)CCl [compound 10]
Assay: probe-labelled cysteine peptide fold change vs DMSO (competition) (log2 fold change); higher = less target engagement (more negative = stronger competition)
Conditions: THP-1, incubation time: 4 h
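Further: competitive profiling in live THP-1 cells: cysteine peptides tagged with an iodoacetamide desthiobiotin (IA-DTB) probe, intensity after compound treatment relative to DMSO-treated cells.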

Target | probe-labelled cysteine peptide fold change (10 µM) | probe-labelled cysteine peptide fold change (50 µM)
FAM208B_Q5VWN6_1432_LHGTQCEK (UniProt Q5VWN6) | -0.167 | -0.21
FARSA_Q9Y285_493_VNLQMVYDSPLCR (UniProt Q9Y285) | -0.162 | 0.161
FCHSD1_Q86WN1_471_ALPCPAHVVFR (UniProt Q86WN1) | -0.0495 | 0.0779
FAM208B_Q5VWN6_186_VIPILSTLNCALLETK (UniProt Q5VWN6) | 0.111 | -0.183
FERMT3_Q86UX7_194_GMPAHFSDSAQTEACYHMLSRPQPPPDPLLLQR (UniProt Q86UX7) | -0.329 | -0.519
FAR2_Q96K12_104_EDMQELLSCTNIIFHCAATVR (UniProt Q96K12) | 0.212 | 0.354
FAM192A_Q9GZU8_187_NQEPSSCK (UniProt Q9GZU8) | -0.339 | -0.474
FAM160B1_Q5W0V3_507_NYTEYKPLCPEDK (UniProt Q5W0V3) | -0.204 | -0.0849
FAM234A_Q9H0X4_285_TGAHYILFPCASSLCGCSVK (UniProt Q9H0X4) | 0.0209 | 0.184
FAM136A_Q96C01_110_QQLDSCVTK (UniProt Q96C01) | -0.0114 | -0.217
FAM83H_Q6ZRV2_789_SLESCLLDLR (UniProt Q6ZRV2) | -0.117 | 0.762
FASN_P49327_2292_AAPLDSIHSLAAYYIDCIR (UniProt P49327) | 0.162 | 0.115
FANCI_Q9NVI1_594_CLSQQADVR (UniProt Q9NVI1) | 0.0589 | -0.0628
FBXL20_Q96IG2_179_ALSEGCPLLEQLNISWCDQVTK (UniProt Q96IG2) | -0.152 | -0.432
FARSB_Q9NSD9_362_ADIIHACDIVEDAAIAYGYNNIQMTLPK (UniProt Q9NSD9) | 0.185 | -0.155
FBXL15_Q9H469_255_HCHHVAESSLSR (UniProt Q9H469) | 0.0878 | -0.193
FANCI_Q9NVI1_908_SISLLCLEGLQK (UniProt Q9NVI1) | -0.0229 | 0.0565
FASN_P49327_1828_CTVFHGAQVEDAFR (UniProt P49327) | 0.0268 | -0.0208
FAM3C_Q92520_185_DNWVFCGGK (UniProt Q92520) | -0.231 | 0.048

Target | probe-labelled cysteine peptide fold change (10 µM) | probe-labelled cysteine peptide fold change (50 µM)
FAM185A_Q8N0U4_284_MGNITVDSSSGCLK (UniProt Q8N0U4) | -0.292 | -0.685
FAM241A_Q8N8J7_2_CSAGELLR (UniProt Q8N8J7) | -0.174 | -0.0321
FANCG_O15287_503_EQGAAFNCEQGCK (UniProt O15287) | -0.111 | -0.635
FDFT1_P37268_6_CLGHPEEFYNLVR (UniProt P37268) | -0.238 | -0.749
FERMT3_Q86UX7_235_CLMQQGIK (UniProt Q86UX7) | -0.0735 | -0.0882
FDXR_P22570_152_ALEIPGEELPGVCSAR (UniProt P22570) | -0.085 | 0.097
FGD3_Q5JSP0_184_LHLLDQVFCTR (UniProt Q5JSP0) | 0.0176 | 0.345
FBXO9_Q9UK97_220_SLEQLSLVCR (UniProt Q9UK97) | 0.18 | 0.28
FBXO30_Q8TB52_592_SFGVQPCVSTVLVEPAR (UniProt Q8TB52) | -0.00516 | -0.247
FARSB_Q9NSD9_548_CAEIFAR (UniProt Q9NSD9) | -0.0718 | 0.00363
FBN2_P35556_1162_NCMDIDECERNPLLCR (UniProt P35556) | 0.209 | 0.235
FAM47A_Q5JRC9_650_ECSSELK (UniProt Q5JRC9) | 0.18 | 0.0244
FAM136A_Q96C01_114_CVDDHMHLIPTMTK (UniProt Q96C01) | -0.00834 | 0.0158
FANCD2_Q9BXW9_729_LVSPLCLAPYFR (UniProt Q9BXW9) | -0.135 | -0.421
FEM1B_Q9UK73_244_ADVVELLLSHADCDRR (UniProt Q9UK73) | -0.425 | -0.334
FAM160B1_Q5W0V3_460_LIEHCDHISDEISIMTLR (UniProt Q5W0V3) | 0.0173 | -0.216
FASTKD1_Q53R41_46_CTDEEQMFGFIER (UniProt Q53R41) | -0.21 | -0.551
FAM98C_Q17RN3_92_ELHCPDR (UniProt Q17RN3) | -0.237 | -0.107
FBXO7_Q9Y3I1_286_LQLLPESFICK (UniProt Q9Y3I1) | 0.226 | 0.218

Target | probe-labelled cysteine peptide fold change (10 µM) | probe-labelled cysteine peptide fold change (50 µM)
FAM98C_Q17RN3_287_ADLSCLVPATSVAVR (UniProt Q17RN3) | -0.194 | 0.101
FAM208A_Q9UK61_1421_NAPELDCLIR (UniProt Q9UK61) | -0.155 | 0.159
FANCD2_Q9BXW9_893_NSECDPTPSHR (UniProt Q9BXW9) | -0.223 | -0.234
FGD4_Q96M96_234_LDLLDQVFYCK (UniProt Q96M96) | 0.118 | 0.154
FBXL15_Q9H469_150_LSLAHCDWVDGLALR (UniProt Q9H469) | 0.00924 | -0.73
FCGRT_P55899_182_ELTFLLFSCPHR (UniProt P55899) | -0.15 | 0.0669
FASN_P49327_630_EAHLPPGAMAAVGLSWEECK (UniProt P49327) | 0.236 | 0.167
FBXO38_Q6PIJ6_242_NCAGPTNSLK (UniProt Q6PIJ6) | 0.0415 | -0.194
FAM98B_Q52LJ0_295_TACAINK (UniProt Q52LJ0) | -0.0789 | -0.0032
FASN_P49327_1992_DGLLENQTPEFFQDVCKPK (UniProt P49327) | -0.0563 | -0.0216
FAM160A2_Q8N612_258_YIADHSYFCPVLATGLSALYSSLPR (UniProt Q8N612) | 0.23 | -0.464
FASN_P49327_779_GLKPSCTIIPLMK (UniProt P49327) | -0.0502 | -0.485
FBXO30_Q8TB52_725_EEAIPLPCMCVTR (UniProt Q8TB52) | 0.235 | -0.68
FAM98B_Q52LJ0_220_INDALSCEYECR (UniProt Q52LJ0) | 0.0797 | -0.181
FAM208A_Q9UK61_617_SHIDTCLHAYIFRPEVYQLPICK (UniProt Q9UK61) | -0.271 | -0.348
FAM91A1_Q658Y4_479_CESLLGLDPATCSR (UniProt Q658Y4) | 0.0283 | -0.01
FBXL18_Q96ME1_557_HLTLAQLPSVLTGSGLVNIGLQCQQLR (UniProt Q96ME1) | -0.293 | -0.335
FASN_P49327_135_GTHTGVWVGVSGSETSEALSRDPETLVGYSMVGCQR (UniProt P49327) | -0.0765 | 0.00188
FDXR_P22570_105_CAFWGNVEVGR (UniProt P22570) | -0.128 | 0.0536

Record cards, from the list above.
FDXR_P22570_105_CAFWGNVEVGR (UniProt P22570) in the list: probe-labelled cysteine peptide fold change (10 µM) = -0.128; probe-labelled cysteine peptide fold change (50 µM) = 0.0536
FASN_P49327_630_EAHLPPGAMAAVGLSWEECK (UniProt P49327) in the list: probe-labelled cysteine peptide fold change (10 µM) = 0.236; probe-labelled cysteine peptide fold change (50 µM) = 0.167
